PubChem BioAssay AID1671190 (National Center for Advancing Translational Sciences (NCATS), 2021)
Screen size: about 580,000 compounds; about 6,100 (1.1%) were called active. The inconclusive results got no clear call from the source; some entries with a clear call stand among them for comparison. Calls follow the shape of the dose curve; as a rule, active = well fitted inhibition curve with a large enough effect; inconclusive = small, poorly fitted or top-dose-only effect, or another doubt; inactive = no such curve, though single readings can be large or run the other way. Potencies beside an inconclusive call are fits to weak or partial responses and may not hold up.

Sequences of proteins named here, by UniProt entry; tags and fusion partners are left off. A change or cut given only in a name is not applied to a line headed by its entry.
UniProt P18054: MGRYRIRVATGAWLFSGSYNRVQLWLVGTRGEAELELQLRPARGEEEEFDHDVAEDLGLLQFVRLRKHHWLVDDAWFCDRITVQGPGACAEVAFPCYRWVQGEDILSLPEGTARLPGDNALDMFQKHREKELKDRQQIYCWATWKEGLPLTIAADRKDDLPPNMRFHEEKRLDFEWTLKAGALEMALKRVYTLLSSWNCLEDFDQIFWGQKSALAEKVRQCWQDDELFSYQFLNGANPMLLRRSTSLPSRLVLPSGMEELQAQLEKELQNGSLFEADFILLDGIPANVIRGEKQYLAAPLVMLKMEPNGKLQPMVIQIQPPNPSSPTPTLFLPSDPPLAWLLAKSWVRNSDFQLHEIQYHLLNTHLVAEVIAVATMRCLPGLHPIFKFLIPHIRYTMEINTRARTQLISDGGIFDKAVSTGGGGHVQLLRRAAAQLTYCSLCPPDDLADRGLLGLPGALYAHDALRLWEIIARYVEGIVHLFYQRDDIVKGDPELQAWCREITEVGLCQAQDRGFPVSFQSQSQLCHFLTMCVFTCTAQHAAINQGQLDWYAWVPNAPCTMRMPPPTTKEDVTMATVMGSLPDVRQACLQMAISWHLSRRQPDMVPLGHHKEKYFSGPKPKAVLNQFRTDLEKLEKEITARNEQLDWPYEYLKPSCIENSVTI

Each molecule was assayed against Polyunsaturated fatty acid lipoxygenase ALOX12 (Homo sapiens) (UniProt P18054) (assay: Primary qHTS assay for inhibitors of human arachidonate 12S-lipoxygenase (ALOX12): Round 2). Conditions: purified 12hLO, xylenol orange hydroperoxide absorbance; activity change, negative = inhibition: at 108 µM (top of the series) unless noted.
Method in brief: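 Hydroperoxide product was detected by ferrous iron/xylenol orange as the 573 to 405 nm absorbance ratio. Arachidonic acid at 40 uM (final) was turned over for 30 min at room temperature by 150 nM human 12hLO, pH 7.0 Hepes buffer, after 15 min compound preincubation.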
% is scaled to controls: 0 for no effect and ±100 for the full control effect; potency is read from the fitted curve at half-maximal effect.

SMILES	Potency	activity change, negative = inhibition
C=CCNC(=S)N/N=C/c1ccc(C(F)(F)F)cc1	inconclusive: 25.1 µM [inhibitor, partial curve, poor fit]	
CCn1c2ccccc2c2cc(C#N)c(N)nc21	inconclusive: 6.31 µM [inhibitor, partial curve, poor fit]	
COc1ccc(C2C(C(=O)c3ccc(C)o3)=C(O)C(=O)N2Cc2cccnc2)cc1 (centres undefined)	inconclusive: 28.2 µM [inhibitor, full curve, poor fit]	
O=C(NCC1CCCO1)c1ccc2c(=O)n(CC3CCCO3)c(=S)[nH]c2c1 (centres undefined)		inconclusive: -38% [inhibitor]
CN1CCC2(Cc3ccccc3CN(C(=O)Cc3cccc(Cl)c3)C2)C1 (centres undefined)	inconclusive: 12.6 µM [inhibitor, full curve, poor fit]	
CCc1nnc2sc(-c3ccc(NC(=O)c4ccco4)cc3)nn12	inactive	
CC(=O)Nc1ccc(Oc2nc(C(F)(F)F)nc3ccccc23)cc1	inactive	
O=C(CSc1ncn[nH]1)Nc1ccc(Cl)c(Cl)c1	inconclusive: 3.55 µM [inhibitor, full curve, poor fit]	
CN1CCCCCCN(S(C)(=O)=O)[C@H]2CCC[C@H]2C1=O	inactive	
CN(C)c1ccc(/C=C2/C[N+](C)(C)C/C(=C/c3ccc(N(C)C)cc3)C2=O)cc1	active: 50.1 µM	
CCOc1ccccc1NC(=O)CC1CCCN(c2cn[nH]c(=O)c2)C1 (centres undefined)	inconclusive: 35.5 µM [inhibitor, partial curve, poor fit]	
CC(C)c1c(C#N)c(N)nc(SCC(=O)c2cc3ccccc3oc2=O)c1C#N	inactive	
CCOC(=O)/C(=C/C=C(\C1=CCCCC1)N(CC)CC)C(C)=O	inconclusive: 39.8 µM [inhibitor, full curve, poor fit]	
COc1ccc(CCNC(=O)CCc2c(C)nc3c4c(C)cc(C)nc4nn3c2C)cc1OC	inactive	
CC1CCN(CCC(=O)O)CC1	inconclusive: 39.8 µM [inhibitor, partial curve, poor fit]	
Cc1noc(C)c1CC(=O)NC1CCCc2c1[nH]c1ccccc21 (centres undefined)	inactive	
CCOc1ccc(NC(=S)NCc2ccco2)cc1	inconclusive: 44.7 µM [inhibitor, partial curve, poor fit]	
CCCCCC(O)(c1ccc(OC)cc1)C(CN1CCOCC1)c1ccccc1 (centres undefined)	inconclusive: 44.7 µM [inhibitor, partial curve, poor fit]	
Cc1ccc(NC(=S)NCC2CCN(C(C)c3ccccc3)C2)cc1 (centres undefined)	inconclusive: 112 µM [inhibitor, single point]	
CN(Cc1ccccc1)Cc1cn([C@H]2CO[C@H]3[C@@H]2OC[C@@H]3NC(=O)c2ccco2)nn1	inconclusive: 15.8 µM [inhibitor, full curve, poor fit]	
O=C(COC(=O)c1cccc([N+](=O)[O-])c1)c1ccc(Cl)cc1	inconclusive: 44.7 µM [inhibitor, partial curve, poor fit]	
O=C(COc1ccc(Cl)cc1Cl)Nc1ccc(CN2CCCCC2)cc1	inconclusive: 100 µM [inhibitor, single point]	

SMILES	Potency	activity change, negative = inhibition
CCc1cc2c(=O)c(-c3nc4ccccc4n3C)coc2c(CN2CCN(C)CC2)c1O	inactive	
O=C1CC(=O)CC(c2ccccc2Cl)C1	inconclusive: 89.1 µM [inhibitor, single point]	
COCC(C)n1c(C)cc(C(=O)CSc2nnnn2C2CCCC2)c1C (centres undefined)	inconclusive: 112 µM [inhibitor, single point]	
O=C1NN=C(CSc2n[nH]c(=S)s2)CS1	inconclusive: 70.8 µM [inhibitor, partial curve, poor fit]	
O=C(c1ccc(F)c(F)c1)N1CCC2(CC1)N(c1ccccc1)C(=O)CS2(=O)=O	inactive	
O=c1[nH]c2ccc(S(=O)(=O)N3CCCCC3)cc2o1	inconclusive: 25.1 µM [inhibitor, partial curve, poor fit]	
COc1ccc(-c2noc(CN(C)S(=O)(=O)c3ccc(OC)cc3)n2)cc1	inactive	
CCCCCCNc1nc2c(c(=O)n(C)c(=O)n2C)n1Cc1cc(OC)ccc1Cl	inactive	
Cc1cc(Nc2ccccc2Cl)nc(-c2ccccc2O)n1	inactive	
Cc1ccc(S(=O)(=O)Nc2cccc(-c3ccc(N4CCC(C)CC4)nn3)c2)s1		inconclusive: -38.3% [inhibitor]
O=C(COc1ccc2ccc(=O)oc2c1)NC(=O)NC12CC3CC(CC(C3)C1)C2	inconclusive: 89.1 µM [inhibitor, partial curve, poor fit]	
COc1c(F)c(F)c(C(=O)Nc2ccc(N3CCN(Cc4ccccc4)CC3)cc2)c(F)c1F	inconclusive: 56.2 µM [inhibitor, partial curve, poor fit]	
C[C@@H]1CN(c2ccc(N3CCN(C(=O)OC(C)(C)C)C[C@H]3C)cc2C#N)C[C@H](C)O1	inconclusive: 35.5 µM [inhibitor, partial curve]	
Cc1nc(Nc2c(Cl)cccc2Cl)sc1C(=O)Nc1ccccc1	inconclusive: 44.7 µM [inhibitor, partial curve]	
C#CCN(C)C(=O)[C@@H](C)C1CC[C@@]2(C)Cc3sc(NC(=O)C4CC4)nc3[C@@H](C)[C@@H]2[C@H]1O (some centres undefined)	active: 112 µM	
Oc1ccc(CN2CCN(c3ncccn3)CC2)cc1	inconclusive: 0.251 µM [inhibitor, full curve, poor fit]	
CN1CCCC(CC2Oc3ccccc3Sc3ccccc32)C1 (centres undefined)	inconclusive: 10 µM [inhibitor, full curve]	
COC(=O)c1ccc(OCC(O)CN2CCCN(c3ccc(C(F)(F)F)cn3)CC2)cc1 (centres undefined)	inactive	
CCOP(=O)(Cc1ccc(C(C)(C)CC(C)=O)o1)OCC	inconclusive: 112 µM [inhibitor, single point]	
Cc1nc(C)c(C(=O)N2CCOCC(O)(CN3CCCC3)C2)s1 (centres undefined)	inactive	
COc1cccc(CN(C)C(=O)c2ccc(Cl)c(S(=O)(=O)N3CCCCCC3)c2)c1OC	inactive	
CCc1ccc(NC(=O)c2noc3c2CCC3)cc1	inconclusive: 10 µM [inhibitor, full curve, poor fit]	

Some of the entries so far, in markdown.

| SMILES | Potency | activity change, negative = inhibition |
| --- | --- | --- |
| C[C@@H]1CN(c2ccc(N3CCN(C(=O)OC(C)(C)C)C[C@H]3C)cc2C#N)C[C@H](C)O1 | inconclusive: 35.5 µM [inhibitor, partial curve] |  |
| Cc1nc(Nc2c(Cl)cccc2Cl)sc1C(=O)Nc1ccccc1 | inconclusive: 44.7 µM [inhibitor, partial curve] |  |
